# Test results from publication PMC9588786.
# The chains behind the UniProt entries cited, without tags or fusion partners. Where a name states a change or a piece, a line headed by the entry shows the natural chain unless it says otherwise.
# UniProt P06730: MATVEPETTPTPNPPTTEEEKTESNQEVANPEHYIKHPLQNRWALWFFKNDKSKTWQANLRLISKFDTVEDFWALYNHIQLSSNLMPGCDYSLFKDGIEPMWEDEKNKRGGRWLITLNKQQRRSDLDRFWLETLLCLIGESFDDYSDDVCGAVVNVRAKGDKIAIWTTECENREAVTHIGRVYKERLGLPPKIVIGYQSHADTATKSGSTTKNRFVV
# No constants are given. Whether binding was seen depends on the method and setting. For some of these results: In cells and extracts the contact can be indirect. Some results given as binding are weak or reduced against the parent protein; the word gives no strength.
# B1: aldehyde dehydrogenase 1 family member B1 (ALDH1B1) (enzyme, UniProt P30837 18-517)
# chain: RYSSAAALPSPILNPDIPYNQLFINNEWQDAVSKKTFPTVNPTTGEVIGHVAEGDRADVDRAVKAAREAFRLGSPWRRMDASERGRLLNRLADLVERDRVYLASLETLDNGKPFQESYALDLDEVIKVYRYFAGWADKWHGKTIPMDGQHFCFTRHEPVGVCGQIIPWNFPLVMQGWKLAPALATGNTVVMKVAEQTPLSALYLASLIKEAGFPPGVVNIITGYGPTAGAAIAQHVDVDKVAFTGSTEVGHLIQKAAGDSNLKRVTLELGGKSPSIVLADADMEHAVEQCHEALFFNMGQCCCAGSRTFVEESIYNEFLERTVEKAKQRKVGNPFELDTQQGPQVDKEQFERVLGYIQLGQKEGAKLLCGGERFGERGFFIKPTVFGGVQDDMRIAKEEIFGPVQPLFKFKKIEEVVERANNTRYGLAAAVFTRDLDKAMYFTQALQAGTVWVNTYNIVTCHTPFGGFKESGNGRELGEDGLKAYTEVKTVTIKVPQKNS
# B2: ALDH1B1 recombinant protein (enzyme, UniProt P30837 18-517)
# chain: B1 chain
# B3: EIF4G2, P78344 1-907 (protein)
# chain: MESAIAEGGASRFSASSGGGGSRGAPQHYPKTAGNSEFLGKTPGQNAQKWIPARSTRRDDNSAANNSANEKERHDAIFRKVRGILNKLTPEKFDKLCLELLNVGVESKLILKGVILLIVDKALEEPKYSSLYAQLCLRLAEDAPNFDGPAAEGQPGQKQSTTFRRLLISKLQDEFENRTRNVDVYDKRENPLLPEEEEQRAIAKIKMLGNIKFIGELGKLDLIHESILHKCIKTLLEKKKRVQLKDMGEDLECLCQIMRTVGPRLDHERAKSLMDQYFARMCSLMLSKELPARIRFLLQDTVELREHHWVPRKAFLDNGPKTINQIRQDAVKDLGVFIPAPMAQGMRSDFFLEGPFMPPRMKMDRDPLGGLADMFGQMPGSGIGTGPGVIQDRFSPTMGRHRSNQLFNGHGGHIMPPTQSQFGEMGGKFMKSQGLSQLYHNQSQGLLSQLQGQSKDMPPRFSKKGQLNADEISLRPAQSFLMNKNQVPKLQPQITMIPPSAQPPRTQTPPLGQTPQLGLKTNPPLIQEKPAKTSKKPPPSKEELLKLTETVVTEYLNSGNANEAVNGVREMRAPKHFLPEMLSKVIILSLDRSDEDKEKASSLISLLKQEGIATSDNFMQAFLNVLDQCPKLEVDIPLVKSYLAQFAARAIISELVSISELAQPLESGTHFPLFLLCLQQLAKLQDREWLTELFQQSKVNMQKMLPEIDQNKDRMLEILEGKGLSFLFPLLKLEKELLKQIKLDPSPQTIYKWIKDNISPKLHVDKGFVNILMTSFLQYISSEVNPPSDETDSSSAPSKEQLEQEKQLLLSFKPVMQKFLHDHVDLQVSALYALQVHCYNSNFPKGMLLRFFVHFYDMEIIEEEAFLAWKEDITQEFPGKGKALFQVNQWLTWLETAEEEESEEEAD
# B4: aldehyde dehydrogenase 3 family member A1 (ALDH3A1) (enzyme, UniProt P30838 1-453)
# chain: MSKISEAVKRARAAFSSGRTRPLQFRIQQLEALQRLIQEQEQELVGALAADLHKNEWNAYYEEVVYVLEEIEYMIQKLPEWAADEPVEKTPQTQQDELYIHSEPLGVVLVIGTWNYPFNLTIQPMVGAIAAGNSVVLKPSELSENMASLLATIIPQYLDKDLYPVINGGVPETTELLKERFDHILYTGSTGVGKIIMTAAAKHLTPVTLELGGKSPCYVDKNCDLDVACRRIAWGKFMNSGQTCVAPDYILCDPSIQNQIVEKLKKSLKEFYGEDAKKSRDYGRIISARHFQRVMGLIEGQKVAYGGTGDAATRYIAPTILTDVDPQSPVMQEEIFGPVLPIVCVRSLEEAIQFINQREKPLALYMFSSNDKVIKKMIAETSSGGVAANDVIVHITLHSLPFGGVGNSGMGSYHGKKSFETFSHRRSCLVRPLMNDEGLKVRYPPSPAKMTQH
# B5: ALDH3A1 recombinant protein (enzyme, UniProt P30838 1-453)
# chain: B4 chain
# Key:
# EIF4E-S209A mutant = EIF4E-S209A mutant (UniProt P06730); experiment: co-IP; immunoprecipitation of the EIF4E-ALDH1B1 complex in EIF4E-knockdown cells re-expressing EIF4E mutants, treated with RSL3 (0.5 μM, 4 h)
# [1] = target: eukaryotic initiation factor 4E (EIF4E) (human (endogenous in HT-1080 and Calu-1)) (UniProt P06730); experiment: co-IP; anti-EIF4E antibody (clone 5D11) with protein A agarose beads on cleared RIPA lysates of HT-1080 or Calu-1 cells, 4 °C, immunoblot of partners; cells untreated or treated with RSL3, 4EGI-1, 4E1RCat, deferoxamine, 20% FBS, staurosporine, or with EIF4G1 knock-down
# [2] = target: eukaryotic initiation factor 4E (EIF4E) (human (endogenous in HT-1080 and Calu-1)) (UniProt P06730); experiment: co-IP; immunoprecipitation of the EIF4E-ALDH1B1 complex in membrane protein extracts of Calu-1 cells treated with RSL3 (0.5 μM) and/or deferoxamine (100 μM) for 4 h
# His-EIF4E bait protein = His-EIF4E bait protein (UniProt P06730); experiment: pull-down; 10 µg His-EIF4E bait on MagZ binding particles; about 2 µg prey protein added, 60 min; washes, SDS-PAGE; both purified
# [3] = target: eukaryotic initiation factor 4E (EIF4E) (human (endogenous in HT-1080 and Calu-1)), P06730; experiment: co-IP; anti-EIF4E antibody (clone 5D11) with protein A agarose beads on cleared RIPA lysates of HT-1080 or Calu-1 cells, 4 °C, immunoblot of partners; cells untreated or treated with RSL3, 4EGI-1, 4E1RCat, deferoxamine, 20% FBS, staurosporine, or with EIF4G1 knock-down; conditions: remark: other sources report otherwise
Binder,binding [1],binding (His-EIF4E bait protein),also measured
B1,binds,–,binding (EIF4E-S209A mutant): binds; binding [2]: binds
B2,–,binds,–
B3,–,–,binding [3]: binds
B4,no binding,–,–
B5,–,no binding (tested: about 2 µg ALDH3A1 protein added),–
